From paper PMC4490784, “Compensatory induction of MYC expression by sustained CDK9 inhibition via a BRD4-dependent mechanism” (eLife, 2015)
No constants are given. Whether binding was seen depends on the method and setting. Binding seen in cells or lysates may run through a third protein. Some results given as binding are weak or reduced against the parent protein; the word gives no strength.

The chains behind the UniProt entries cited, without tags or fusion partners.
UniProt P01106: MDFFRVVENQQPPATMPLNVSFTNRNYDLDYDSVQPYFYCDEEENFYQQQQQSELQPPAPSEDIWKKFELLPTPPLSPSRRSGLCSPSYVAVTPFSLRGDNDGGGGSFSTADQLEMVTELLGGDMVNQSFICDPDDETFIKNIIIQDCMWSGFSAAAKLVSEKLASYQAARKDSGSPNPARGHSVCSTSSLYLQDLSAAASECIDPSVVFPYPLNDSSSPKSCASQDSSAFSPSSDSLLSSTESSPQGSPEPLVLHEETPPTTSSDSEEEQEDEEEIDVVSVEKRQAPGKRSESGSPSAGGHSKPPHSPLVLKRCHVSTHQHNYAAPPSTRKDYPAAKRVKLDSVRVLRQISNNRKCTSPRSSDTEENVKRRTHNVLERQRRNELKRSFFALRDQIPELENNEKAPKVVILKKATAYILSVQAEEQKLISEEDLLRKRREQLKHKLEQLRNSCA
UniProt P50750: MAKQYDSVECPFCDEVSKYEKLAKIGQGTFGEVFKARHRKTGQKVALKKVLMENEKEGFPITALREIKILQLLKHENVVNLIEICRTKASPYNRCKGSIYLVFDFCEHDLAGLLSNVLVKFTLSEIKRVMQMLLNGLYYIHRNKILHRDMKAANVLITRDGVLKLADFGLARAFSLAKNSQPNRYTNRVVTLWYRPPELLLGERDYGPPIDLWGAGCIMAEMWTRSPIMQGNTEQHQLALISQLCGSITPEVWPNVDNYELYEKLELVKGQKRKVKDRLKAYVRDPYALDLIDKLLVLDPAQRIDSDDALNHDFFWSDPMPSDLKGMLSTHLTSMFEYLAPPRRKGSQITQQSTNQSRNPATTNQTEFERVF
UniProt O94992: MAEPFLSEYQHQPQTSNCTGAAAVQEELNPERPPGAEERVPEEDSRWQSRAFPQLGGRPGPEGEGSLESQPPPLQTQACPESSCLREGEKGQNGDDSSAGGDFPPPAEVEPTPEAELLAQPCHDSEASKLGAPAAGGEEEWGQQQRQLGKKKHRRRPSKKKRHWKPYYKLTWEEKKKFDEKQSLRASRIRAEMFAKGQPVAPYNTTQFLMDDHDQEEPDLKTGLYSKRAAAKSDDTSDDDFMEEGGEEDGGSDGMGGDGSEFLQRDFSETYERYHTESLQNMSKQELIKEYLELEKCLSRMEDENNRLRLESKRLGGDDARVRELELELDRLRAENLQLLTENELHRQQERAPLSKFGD

Key:
Flag-tagged MYC (MYC-F) = Flag-tagged MYC (MYC-F) (UniProt P01106); test: co-IP; anti-Flag immunoprecipitation of MYC-F from nuclear extracts of HeLa-based cells, untreated or treated with i-CDK9 or DMSO; immunoblotting
[1] = molecular target: Flag-tagged CDK9 (CDK9-F) (UniProt P50750); test: co-IP; anti-Flag immunoprecipitation of CDK9-F from nuclear extracts of F1C2 cells treated with a range of i-CDK9 concentrations for 8 hr; Western blotting

Row | binding (Flag-tagged MYC (MYC-F)) | binding [1] | Substance
1 | binds | – | CDK9 (from UniProt P50750 1-372) (enzyme)
2 | – | binds | HEXIM1 (from UniProt O94992 1-359)
